The values below come from PubChem BioAssay AID328 (DTP/NCI, 2004).

The test system of this assay is BDF1 mice, P388 leukemia ip, median survival T/C. Description: NCI In Vivo Anticancer Drug Screen. Data for tumor model P388 Leukemia (intraperitoneal) in B6D2F1 (BDF1) mice. To be noted: higher T/C = longer survival. In a few lines:
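In tumour-bearing mice, survival after compound treatment is set against the vehicle group and given as a quotient.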

Where [1] appears, read: T/C endpoint: median survival time, dose: 100.0 mg/kg/injection, schedule: Q01DX009 (ip), vehicle: saline.
The mark [2] stands for this setting: T/C endpoint: median survival time, dose: 300.0 mg/kg/injection, schedule: Q04DX003 (ip), vehicle: saline with Tween-80.
Where [3] appears, read: T/C endpoint: median survival time, dose: 100.0 mg/kg/injection, schedule: Q01DX009 (ip), vehicle: Klucel (hydroxypropylcellulose) (HPC).
Setting [4] is: T/C endpoint: median survival time, dose: 200.0 mg/kg/injection, schedule: Q01DX009 (ip), vehicle: saline with Tween-80.
Setting [5] is: T/C endpoint: median survival time, dose: 100.0 mg/kg/injection, schedule: Q01DX009 (ip), vehicle: saline with Tween-80.

The list shows only some results of the screen, not a fair sample: it is rich in T/C values a quarter to a half above the control, in often repeated tests (any T/C) and in doses without a T/C. Further doses and runs are listed elsewhere. T/C: endpoint of the treated group in % of that of the vehicle group. Some doses have a count of surviving animals in place of a T/C: the source holds a T/C of zero for them, seemingly a mark for toxic or unscored doses. Some survivor counts are full or nearly so, which does not show that the dose was tolerated: the source hardly ever lists a survival T/C far under the control, and the zero likely stands for such cases as well. Counts of survivors are from the toxicity check (mostly the fifth day) where no day follows; animals may have died later. Schedules are NCI's codes, taken here to give the interval after Q, in days (D) or hours (H), and the number of doses after X. Some entries hold several experiments; the values are given in rising order. Additions like (4×) stand for listed records that agree. Where survival is the endpoint, this PubChem deposit counts one and a half times the control or more as active, and values a quarter to a half above the control carry no call in these data; other NCI protocols may use other cut-offs. Some T/C values are followed by the survivors on the day toxicity was checked, most often the fifth; without a count, all were alive then.

In the case of `CSC1SCC2C(=O)N(C)C(C(C)C)C(=O)OCC(NC(=O)c3cnc4ccccc4n3)C(=O)NC(C)C(=O)N(C)C1C(=O)N(C)C(C(C)C)C(=O)OCC(NC(=O)c1cnc3ccccc3n1)C(=O)NC(C)C(=O)N2C` (configuration not stated), the T/C (T/C endpoint: median survival time, dose: 2.5 micrograms/kg/injection, schedule: Q01DX010 (ip), vehicle: saline) was 145 % of control; the T/C (T/C endpoint: median survival time, dose: 7.5 micrograms/kg/injection, schedule: Q01DX009 (ip), vehicle: saline with Tween-80) was 125 % of control; the T/C (T/C endpoint: median survival time, dose: 10.0 micrograms/kg/injection, schedule: Q01DX010 (ip), vehicle: saline) was 127 % of control [4 of 6 alive]; the T/C (T/C endpoint: median survival time, dose: 15.0 micrograms/kg/injection, schedule: Q01DX009 (ip), vehicle: saline with Tween-80) was 132 % of control. Further, the survivor count is, setting by setting: (T/C endpoint: median survival time, dose: 40.0 micrograms/kg/injection, schedule: Q01DX010 (ip), vehicle: saline) 1 of 6; (T/C endpoint: median survival time, dose: 80.0 micrograms/kg/injection, schedule: Q01DX010 (ip), vehicle: saline) 1 of 6; (T/C endpoint: median survival time, dose: 160.0 micrograms/kg/injection, schedule: Q01DX010 (ip), vehicle: saline) 0 of 6; (T/C endpoint: median survival time, dose: 320.0 micrograms/kg/injection, schedule: Q01DX010 (ip), vehicle: saline) 0 of 6.
Regarding `NC(=O)NNC(N)=O`, the survivor count under setting [1] is 6 of 6.
For the compound `CC1(C)C(=O)C(O)=CC2C1=CCC1C2(C)C(=O)CC2(C)C(C(C)(O)C(=O)CC(O)C(C)(C)O)C(O)CC12C` (configuration not stated), the survivor count (T/C endpoint: mean survival time, dose: 18.0 mg/kg/injection, schedule: Q01DX010 (ip), vehicle: carboxymethylcellulose (CMC)) is 6 of 6.
On to `Nc1ncnc2c1ncn2C(C=O)OC(C=O)CO` (configuration not stated), for which the T/C (T/C endpoint: median survival time, dose: 2.0 mg/kg/injection, schedule: Q01DX009 (ip), vehicle: carboxymethylcellulose (CMC)) was 135 % of control; the T/C (T/C endpoint: median survival time, dose: 2.2 mg/kg/injection, schedule: Q01DX009 (ip), vehicle: saline) is 147 % of control; the T/C (T/C endpoint: median survival time, dose: 3.0 mg/kg/injection, schedule: Q01DX009 (ip), vehicle: saline) is 148 % of control. In addition, the survivor count is on record as 1 of 6 (T/C endpoint: median survival time, dose: 32.0 mg/kg/injection, schedule: Q01DX009 (ip), vehicle: carboxymethylcellulose (CMC)); 1 of 6 (T/C endpoint: median survival time, dose: 64.0 mg/kg/injection, schedule: Q01DX009 (ip), vehicle: carboxymethylcellulose (CMC)); 5 of 6 (T/C endpoint: median survival time, dose: 100.0 mg/kg/injection, schedule: Q04DX003 (ip), vehicle: saline); 0 of 6 (T/C endpoint: median survival time, dose: 160.0 mg/kg/injection, schedule: Q04DX003 (ip), vehicle: carboxymethylcellulose (CMC)); 0 of 6 (T/C endpoint: median survival time, dose: 200.0 mg/kg/injection, schedule: Q04DX003 (ip), vehicle: saline); 0 of 6 (T/C endpoint: median survival time, dose: 400.0 mg/kg/injection, schedule: Q04DX003 (ip), vehicle: saline).
With `CCOC(=O)/C=C/C(C(=O)OCC)C(=O)OCC`, the T/C under setting [2] is 130 % of control.
Take `O=NN(CCCl)C(=O)N[C@H]1CCCC[C@H]1Cl`: the T/C reads like this: (T/C endpoint: median survival time, dose: 3.5 mg/kg/injection, schedule: Q01DX009 (ip), vehicle: Klucel (hydroxypropylcellulose) (HPC)) 133 and 138 % of control; (T/C endpoint: median survival time, dose: 8.0 mg/kg/injection, schedule: Q04DX003 (ip), vehicle: Klucel (hydroxypropylcellulose) (HPC)) 125 % of control; (T/C endpoint: median survival time, dose: 67.0 mg/kg/injection, schedule: Q04DX003 (ip), vehicle: Klucel (hydroxypropylcellulose) (HPC)) 130 % of control; (T/C endpoint: median survival time, dose: 100.0 mg/kg/injection, schedule: Q04DX003 (ip), vehicle: Klucel (hydroxypropylcellulose) (HPC)) 130 % of control; (T/C endpoint: median survival time, dose: 150.0 mg/kg/injection, schedule: Q04DX003 (ip), vehicle: Klucel (hydroxypropylcellulose) (HPC)) 135 % of control. Moreover, the survivor count was 6 of 6 (T/C endpoint: median survival time, dose: 67.0 mg/kg/injection, schedule: Q01DX009 (ip), vehicle: Klucel (hydroxypropylcellulose) (HPC)); 6 of 6 under setting [3]; 6 of 6 (T/C endpoint: median survival time, dose: 150.0 mg/kg/injection, schedule: Q01DX009 (ip), vehicle: Klucel (hydroxypropylcellulose) (HPC)).
Consider `O=C1NC(=O)C2C3C(C(O)(c4ccccc4)c4ccccn4)=CC(/C3=C(\c3ccccc3)c3ccccn3)C12` (configuration not stated), for which the survivor count is, setting by setting: under setting [3], 6 of 6; (T/C endpoint: median survival time, dose: 200.0 mg/kg/injection, schedule: Q01DX009 (ip), vehicle: Klucel (hydroxypropylcellulose) (HPC)) 6 of 6; (T/C endpoint: median survival time, dose: 400.0 mg/kg/injection, schedule: Q01DX009 (ip), vehicle: Klucel (hydroxypropylcellulose) (HPC)) 6 of 6.
Regarding `CN(c1ccccc1)P(=O)(N1CC1)N1CC1`, the T/C (T/C endpoint: median survival time, dose: 16.5 mg/kg/injection, schedule: Q04DX003 (ip), vehicle: saline with Tween-80) was 136 % of control.
Turning to `Cc1cc(N(CCOS(C)(=O)=O)CCOS(C)(=O)=O)ccc1C=O`, the survivor count runs as follows: (T/C endpoint: median survival time, dose: 50.0 mg/kg/injection, schedule: Q04DX003 (ip), vehicle: saline with Tween-80) 5 of 6; (T/C endpoint: median survival time, dose: 100.0 mg/kg/injection, schedule: Q04DX003 (ip), vehicle: saline with Tween-80) 6 of 6.
On to `CN(C)CCNC(=O)Cc1cc(O)c2c(c1O)C(=O)c1ccccc1C2=O`, for which the survivor count (T/C endpoint: median survival time, dose: 200.0 mg/kg/injection, schedule: Q01DX005 (ip), vehicle: saline) was 5 of 6.
As to `CCCCCCCCCCC[CH2][Hg][CH2]CCCCCCCCCCC`, the survivor count (T/C endpoint: median survival time, dose: 400.0 mg/kg/injection, schedule: Q04DX003 (ip), vehicle: Klucel (hydroxypropylcellulose) (HPC)) is 6 of 6.
For the compound `CCOC(=O)c1oc2ccccc2c1CN`, under setting [4], the survivor count is recorded as 6 of 6.
As for `CC(=O)OCC1OC(n2cnc3c(=S)nc(N)[nH]c32)C(OC(C)=O)C1OC(C)=O` (configuration not stated), the T/C is 127 % of control (T/C endpoint: median survival time, dose: 8.0 mg/kg/injection, schedule: Q01DX009 (ip), vehicle: saline with Tween-80) and 125 % of control under setting [2]. Besides, the survivor count reads like this: under setting [5], 6 of 6; under setting [4], 3 of 6.
For `COC(=O)c1ccc(COc2ccc([N+](=O)[O-])cc2Cl)cc1`, the T/C under setting [5] is 130 % of control.
For `O=P(N1CCOCC1)(N1CC1)N1CC1`, the T/C (T/C endpoint: median survival time, dose: 6.25 mg/kg/injection, schedule: Q01DX009 (ip), vehicle: saline) was 131 % of control. Moreover, the survivor count is 6 of 6 (T/C endpoint: median survival time, dose: 25.0 mg/kg/injection, schedule: Q01DX009 (ip), vehicle: saline); 6 of 6 (2×) and 7 of 7 (T/C endpoint: median survival time, dose: 50.0 mg/kg/injection, schedule: Q01DX009 (ip), vehicle: saline); 3 of 6 under setting [1].
In the case of `Cc1cc(Br)c2nsnc2c1[N+](=O)[O-]`, the T/C reads like this: (T/C endpoint: median survival time, dose: 100.0 mg/kg/injection, schedule: Q01DX005 (ip), vehicle: saline with Tween-80) 127 % of control; (T/C endpoint: median survival time, dose: 200.0 mg/kg/injection, schedule: Q01DX005 (ip), vehicle: saline with Tween-80) 125 % of control.
In the case of `CCCCN(c1ccccc1)c1ncnc2c1cnn2C`, the survivor count under setting [4] is on record as 5 of 6.
As to `Cc1cc(N)c2cc(NC(=O)CCCCCC(=O)Nc3ccc4nc(C)cc(N)c4c3)ccc2n1`, the survivor count is, setting by setting: under setting [5], 0 of 6; under setting [4], 0 of 6; (T/C endpoint: median survival time, dose: 400.0 mg/kg/injection, schedule: Q01DX009 (ip), vehicle: saline with Tween-80) 0 of 6.
Regarding `C=CCCCCCC/C=C\CCCCC`, the T/C (T/C endpoint: median survival time, dose: 100.0 mg/kg/injection, schedule: Q01DX010 (ip), vehicle: alcohol) is 127 % of control [3 of 4 alive]. Further, the survivor count (T/C endpoint: median survival time, dose: 200.0 mg/kg/injection, schedule: Q01DX010 (ip), vehicle: alcohol) was 1 of 4 and the survivor count (T/C endpoint: median survival time, dose: 400.0 mg/kg/injection, schedule: Q01DX010 (ip), vehicle: alcohol) is listed as 0 of 4.
As to `CCCCOC(=O)C(N)Cc1ccc(OC)c(N(CCCl)CCCl)c1` (configuration not stated), under “T/C endpoint: median survival time, dose: 12.0 mg/kg/injection, schedule: Q04DX003 (ip), vehicle: saline”, the survivor count was 6 of 6.
With `CC(O)C(=O)Oc1ccccc1` (configuration not stated), the survivor count (T/C endpoint: median survival time, dose: 400.0 mg/kg/injection, schedule: Q01DX009 (ip), vehicle: saline) is reported as 4 of 6.
